Experimental data: PubChem BioAssay AID1508588 (Peter MacCallum Cancer Centre, 2020)

- Test: 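Genome-wide search for knock-downs that heighten vemurafenib action in melanoma cells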 (primary screen)
- Cell system: human WM266.4 melanoma cells (BRAF V600 mutant)
- Knock-down reagent: siRNA pool against human genes, 40 nM
- Duration: 96 h from transfection to read-out
- Treatment: vemurafenib 300 nM (about IC25), added 48 h after transfection, for 48 h; comparison arm got DMSO vehicle only
- Measurement: 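Ratios to non-targeting siRNA for cell gain, counted as DAPI nuclei after minus before drug and averaged over two replicates, and for absorbance-read medium lactate per cell; both binned into fold-change classes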
- Reading the numbers: cell gain with vemurafenib: higher = more cell gain than with non-targeting siRNA; lactate per cell with vemurafenib: higher = more lactate made per cell
- Call rule: 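a knock-down counts as enhancing when its fold-change classes with vehicle and with vemurafenib, taken together, show a stronger drug effect on cell gain or lactate per cell; exact class pairs not stated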
- Calls: active = enhances vemurafenib effect; inactive = no enhancement seen
In all, the deposit lists about 18,000 reagents; shown is a random part of them. Of all reagents, 790 (4.4%) are marked active. 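Calls rest on a combination of fold-change classes in drug and vehicle arms, not all shown here.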 A reagent listed more than once was tested more than once; the source does not tell the runs apart.

no.	target gene	cell gain with vemurafenib	lactate per cell with vemurafenib	outcome
1	MARCHF7	1.03	0.82	inactive
2	C8orf74	0.11	2.21	inactive
3	LINC02897	1.47	0.62	inactive
4	WDR11	0.54	1.25	inactive
5	PABIR1	0.84	0.72	inactive
6	SBSN	1.08	0.51	inactive
7	BTG1	0.41	1.5	inactive
8	SELENOI	0.66	0.43	inactive
9	UNC13C	0.93	0.2	inactive
10	MSS51	0.62	0.94	inactive
11	UGT2B4	0.2	2.02	inactive
12	OAS1	0.85	1.56	inactive
13	METTL25	0.67	1.25	inactive
14	CLEC3B	0.64	1.52	inactive
15	DNAAF2	0.91	1.19	inactive
16	FXYD7	0.52	0.57	inactive
17	ARMC2	1.21	1.06	inactive
18	ZNF20	0.33	0.74	inactive
19	PELO	0.3	1.48	inactive
20	OPRK1	0.26	0.44	active
21	FRMPD1	0.88	1.08	inactive
22	CSMD3	0.97	0.54	inactive
23	TPTE	0.8	0.8	inactive
24	TPTE	0.69	1.12	inactive
25	POLE2	0.26	1.66	inactive
26	AMIGO2	-0.01	0.3	inactive
27	ARL2BP	0.61	0.84	inactive
28	OBI1	0.5	0.04	inactive
29	MB	0.54	0.84	inactive
30	CLTA	0.13	1.21	inactive
31	SNRPA1	0.24	2.31	inactive
32	SDC2	0.37	2	inactive
33	PCDH11X	0.42	0.61	inactive
34	EHMT2	0.39	1.36	inactive
